Results are given in words; binding and its absence hold for the method and conditions named. Some binding calls cover weakened binding; strength is not graded here.
Key:
[1] = biological target: T1, Ferredoxin reductase (Fdxr) (human) (UniProt P22570); assay: time course of Fhit-His6 pull-down after infection of A549 cells, immunoblot (FIG. 2C)
T1 sequence (looked up): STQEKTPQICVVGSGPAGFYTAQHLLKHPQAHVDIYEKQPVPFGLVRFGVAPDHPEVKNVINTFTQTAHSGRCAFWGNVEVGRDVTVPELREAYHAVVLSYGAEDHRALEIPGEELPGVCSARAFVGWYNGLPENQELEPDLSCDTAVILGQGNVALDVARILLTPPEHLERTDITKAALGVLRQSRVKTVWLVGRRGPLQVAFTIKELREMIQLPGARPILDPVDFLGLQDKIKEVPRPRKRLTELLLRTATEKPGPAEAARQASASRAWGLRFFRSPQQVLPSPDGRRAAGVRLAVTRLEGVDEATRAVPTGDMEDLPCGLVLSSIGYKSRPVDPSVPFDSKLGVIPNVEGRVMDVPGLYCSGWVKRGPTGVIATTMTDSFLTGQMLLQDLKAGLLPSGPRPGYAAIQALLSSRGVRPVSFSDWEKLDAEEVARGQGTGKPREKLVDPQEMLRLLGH

Chains of the proteins cited; added tags and fusions are not shown. Lines headed by an entry give the natural chain unless they say otherwise; changes in a name come on top. A line that says so, or that is headed by a name, gives the form on record, which may keep a tag or linker. Residues count along the entry.
UniProt P10809, residues 27-573: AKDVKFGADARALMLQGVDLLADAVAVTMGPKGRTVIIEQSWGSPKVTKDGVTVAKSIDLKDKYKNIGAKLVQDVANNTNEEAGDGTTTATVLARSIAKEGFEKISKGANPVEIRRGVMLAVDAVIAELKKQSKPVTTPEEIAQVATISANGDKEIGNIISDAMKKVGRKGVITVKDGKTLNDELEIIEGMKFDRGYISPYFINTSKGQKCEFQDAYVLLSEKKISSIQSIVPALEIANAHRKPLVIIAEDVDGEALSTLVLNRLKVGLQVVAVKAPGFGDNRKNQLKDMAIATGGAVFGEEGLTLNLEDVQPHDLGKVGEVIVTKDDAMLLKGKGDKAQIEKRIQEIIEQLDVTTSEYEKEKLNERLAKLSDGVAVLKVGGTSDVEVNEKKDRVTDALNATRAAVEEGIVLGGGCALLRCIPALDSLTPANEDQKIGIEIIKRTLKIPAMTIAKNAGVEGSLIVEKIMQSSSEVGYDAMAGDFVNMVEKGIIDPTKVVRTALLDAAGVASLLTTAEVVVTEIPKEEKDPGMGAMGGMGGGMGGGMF
UniProt P61604, residues 2-102: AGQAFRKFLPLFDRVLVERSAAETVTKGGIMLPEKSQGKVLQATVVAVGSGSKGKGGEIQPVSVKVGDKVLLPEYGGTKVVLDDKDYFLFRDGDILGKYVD
Fhit-His6 (recombinant fragile histidine triad protein with C-terminal His6 epitope tag, expressed from AdFHIT-His6) (P49789, form named): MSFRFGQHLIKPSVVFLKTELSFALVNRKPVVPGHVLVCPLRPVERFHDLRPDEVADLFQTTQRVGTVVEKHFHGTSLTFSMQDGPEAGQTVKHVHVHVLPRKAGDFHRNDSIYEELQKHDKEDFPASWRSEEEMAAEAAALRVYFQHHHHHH

[2] = biological target: Hsp60 (60-kDa heat shock protein) (human) (UniProt P10809); assay: selected ion chromatograms, LC-MS/MS of Fhit-His6 pull-down against control; peptide [..] of Hsp60
[3] = biological target: T1, Ferredoxin reductase (Fdxr) (human); assay: His6-tag purification from A549 cells infected with AdFHIT-His6 m.o.i. 20, with or without DSP, immunoblot (FIG. 2C)
[4] = biological target: Hsp10 (10-kDa heat shock protein) (human) (UniProt P61604); assay: His6-tag purification from A549 cells infected with AdFHIT-His6 m.o.i. 20, with or without DSP, immunoblot (FIG. 2B)
[5] = biological target: T1, Ferredoxin reductase (Fdxr) (human); assay: selected ion chromatograms, LC-MS/MS of Fhit-His6 pull-down against control; peptide [..] of Fdxr
[6] = biological target: Hsp10 (10-kDa heat shock protein) (human) (UniProt P61604); assay: Fhit-His6 complex purification after cross-linking
[7] = biological target: T1, Ferredoxin reductase (Fdxr) (human); assay: Fhit-His6 complex purification after cross-linking
[8] = biological target: Hsp60 (60-kDa heat shock protein) (human) (UniProt P10809); assay: Fhit-His6 complex purification after cross-linking
[9] = biological target: T1, Ferredoxin reductase (Fdxr) (human); assay: Fhit-His6 pull-down after mitochondria isolation from A549 cells, immunoblot with anti-Fdxr (FIG. 2C)
[10] = biological target: Hsp10 (10-kDa heat shock protein) (human) (UniProt P61604); assay: comparison of selected ion chromatograms, Ad FHIT-His6 sample against control
[11] = biological target: T1, Ferredoxin reductase (Fdxr) (human); assay: as above
[12] = biological target: Hsp60 (60-kDa heat shock protein) (human) (UniProt P10809); assay: as above
[13] = biological target: Hsp10 (10-kDa heat shock protein) (human) (UniProt P61604); assay: DSP cross-linking in A549 cells, nickel-bead pull-down of Fhit-His6, LC-MS/MS (Table 1)
[14] = biological target: T1, Ferredoxin reductase (Fdxr) (human); assay: as above
[15] = biological target: Hsp60 (60-kDa heat shock protein) (human) (UniProt P10809); assay: as above
[16] = biological target: Hsp10 (10-kDa heat shock protein) (human) (UniProt P61604); assay: selected ion chromatograms, LC-MS/MS of Fhit-His6 pull-down against control; peptide … of Hsp10
[17] = biological target: Hsp60 (60-kDa heat shock protein) (human) (UniProt P10809); assay: nickel pull-down of DSP cross-linked Fhit-His6 from cytosol and mitochondria of A549 cells, immunoblot (FIG. 3A)
[18] = biological target: Hsp10 (10-kDa heat shock protein) (human) (UniProt P61604); assay: Fhit-His6 pull-down from A549 cells with or without DSP, immunoblot with anti-Hsp10 (FIG. 2B)
[19] = biological target: Hsp60 (60-kDa heat shock protein) (human) (UniProt P10809); assay: Fhit-His6 pull-down from A549 cells with or without DSP, immunoblot with anti-Hsp60 (FIG. 2A)
[20] = biological target: Hsp60 (60-kDa heat shock protein) (human) (UniProt P10809); assay: His6-tag purification from A549 cells infected with AdFHIT-His6 m.o.i. 20, with or without DSP, immunoblot (FIG. 2A)
[21] = biological target: Hsp10 (10-kDa heat shock protein) (human) (UniProt P61604); assay: DSP cross-linking in A549 cells, nickel-bead pull-down of Fhit-His6, LC-MS/MS
[22] = biological target: T1, Ferredoxin reductase (Fdxr) (human); assay: as above
[23] = biological target: Hsp60 (60-kDa heat shock protein) (human) (UniProt P10809); assay: as above
[24] = biological target: Hsp60 (60-kDa heat shock protein) (human) (UniProt P10809); assay: Fhit-H6 nickel pull-down from cytosol and mitochondrial fractions of A549 cells (AdFHIT-His6 m.o.i. 5) after cross-linking, immunoblot (FIG. 3A)

binding [1]: binds | binding [2]: binds | binding [3]: binds | binding [4]: binds | binding [5]: binds | binding [6]: binds | binding [7]: binds | binding [8]: binds | binding [9]: binds | binding [10]: binds | binding [11]: binds | binding [12]: binds | binding [13]: binds | binding [14]: binds | binding [15]: binds | binding [16]: binds | binding [17]: binds | binding [18]: binds | binding [19]: binds | binding [20]: binds | binding [21]: binds | binding [22]: binds | binding [23]: binds | binding [24]: binds
Substance: Fhit-His6 (recombinant fragile histidine triad protein with C-terminal His6 epitope tag, expressed from AdFHIT-His6) (from UniProt P49789 1-147)

Reference: US20120010092A1
